Earlier results as cited in patent US11969483B2, “Porous nanocarriers for the monitoring and treatment of bladder cancer” (NANOMEDTRIX, LLC, priority 2019, dated 2024).

**Q.** Which results are given for `O=C([O-])CN(CCN(CC(=O)[O-])CC(=O)O)CCN(CC(=O)[O-])CC(=O)O.[Gd+3]` [Gd-DTPA]?
**A.** attenuation relative to Iohexol 300 (equivalent concentration): roughly ⅓; attenuation compared with iodinated CT contrast agents (tube voltage 120 kVp): comparable
